Laboratory results taken from publication PMC13022455, “Oligomerization-dependent and synergistic regulation of Cdc42 GTPase cycling by a GEF and a GAP” (EMBO Reports, 2026).
No constants are given. Whether binding was seen depends on the method and setting.

Molecular target: T1, Cdc24 (S. cerevisiae), P11433
T1 chain: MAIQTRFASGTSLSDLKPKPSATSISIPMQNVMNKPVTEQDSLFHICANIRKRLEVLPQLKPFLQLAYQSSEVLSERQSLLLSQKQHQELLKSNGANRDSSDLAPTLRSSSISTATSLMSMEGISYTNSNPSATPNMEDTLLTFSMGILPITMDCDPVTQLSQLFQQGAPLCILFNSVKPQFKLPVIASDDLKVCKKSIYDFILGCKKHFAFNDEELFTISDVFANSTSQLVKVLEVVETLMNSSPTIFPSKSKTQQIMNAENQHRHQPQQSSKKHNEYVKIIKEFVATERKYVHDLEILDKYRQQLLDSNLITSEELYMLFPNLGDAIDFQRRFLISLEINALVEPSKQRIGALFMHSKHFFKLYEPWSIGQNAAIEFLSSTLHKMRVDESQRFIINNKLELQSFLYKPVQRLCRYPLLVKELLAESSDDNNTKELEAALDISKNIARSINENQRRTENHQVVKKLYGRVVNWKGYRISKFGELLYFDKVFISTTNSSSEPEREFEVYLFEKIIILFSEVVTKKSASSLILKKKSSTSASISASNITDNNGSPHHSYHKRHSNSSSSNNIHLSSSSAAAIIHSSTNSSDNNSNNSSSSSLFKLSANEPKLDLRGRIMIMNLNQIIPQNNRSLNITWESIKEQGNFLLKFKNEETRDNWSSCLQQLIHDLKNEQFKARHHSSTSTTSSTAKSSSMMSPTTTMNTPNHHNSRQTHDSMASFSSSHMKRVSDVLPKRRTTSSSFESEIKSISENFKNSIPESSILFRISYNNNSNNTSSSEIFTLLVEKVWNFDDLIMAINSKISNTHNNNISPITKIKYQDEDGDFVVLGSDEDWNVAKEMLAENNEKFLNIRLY
Assay: SEC-MALS; single purified proteins; Superdex 200 Increase 10/300 GL, SEC buffer (50 mM Tris-HCl pH 7.5, 100 mM NaCl, 10 mM MgCl2, 1 mM 2-mercaptoethanol) with 0.02% sodium azide, 0.5 mL/min; samples 5.7–7.1 µM; fractions analysed by SDS-PAGE and anti-His western blot; both purified
Conditions: remark: other sources report otherwise

binding: no binding (tested: 5.7–7.1 µM)
B1: Cdc24, P11433 1-854 (enzyme)
chain: T1 chain
